Article PMC4007472
Results are given in words; binding and its absence hold for the method and conditions named. A result given as binding can be weak or reduced; the word gives no strength.

Molecular target: Human plasma fibronectin (Fn) (human)
Assay: adherence of bacteria to coated wells (crystal violet); human plasma Fn immobilised on ELISA wells, ~10^8 washed S. aureus cells expressing FnBPA constructs, 1 h 37 °C, without or with a range of concentrations of human Fg; only the target purified

B1: Intact FnBPA (with FnBRs 1–11), expressed on S. aureus (protein, UniProt P14738 37-985)
chain: ASEQKTTTVEENGNSATDNKTSETQTTATNVNHIEETQSYNATVTEQPSNATQVTTEEAPKAVQAPQTAQPANIETVKEEVVKEEAKPQVKETTQSQDNSGDQRQVDLTPKKATQNQVAETQVEVAQPRTASESKPRVTRSADVAEAKEASNAKVETGTDVTSKVTVEIGSIEGHNNTNKVEPHAGQRAVLKYKLKFENGLHQGDYFDFTLSNNVNTHGVSTARKVPEIKNGSVVMATGEVLEGGKIRYTFTNDIEDKVDVTAELEINLFIDPKTVQTNGNQTITSTLNEEQTSKELDVKYKDGIGNYYANLNGSIETFNKANNRFSHVAFIKPNNGKTTSVTVTGTLMKGSNQNGNQPKVRIFEYLGNNEDIAKSVYANTTDTSKFKEVTSNMSGNLNLQNNGSYSLNIENLDKTYVVHYDGEYLNGTDEVDFRTQMVGHPEQLYKYYYDRGYTLTWDNGLVLYSNKANGNEKNGPIIQNNKFEYKEDTIKETLTGQYDKNLVTTVEEEYDSSTLDIDYHTAIDGGGGYVDGYIETIEETDSSAIDIDYHTAVDSEAGHVGGYTESSEESNPIDFEESTHENSKHHADVVEYEEDTNPGGGQVTTESNLVEFDEESTKGIVTGAVSDHTTVEDTKEYTTESNLIELVDELPEEHGQAQGPVEEITKNNHHISHSGLGTENGHGNYDVIEEIEENSHVDIKSELGYEGGQNSGNQSFEEDTEEDKPKYEQGGNIVDIDFDSVPQIHGQNKGNQSFEEDTEKDKPKYEHGGNIIDIDFDSVPHIHGFNKHTEIIEEDTNKDKPSYQFGGHNSVDFEEDTLPKVSGQNEGQQTIEEDTTPPIVPPTPPTPEVPSEPETPTPPTPEVPSEPETPTPPTPEVPSEPETPTPPTPEVPAEPGKPVPPAKEEPKKPSKPVEQGKVVTPVIEINEKVKAVAPTKKPQSKKSELPET
Q: With B1 as the binder, how does the binding read?
A: The binding was “binds”.
